The list shows a part of the results, in another mix than the full data.
Compound: COC(=O)C#Cc1ccccc1 [methyl 3-phenylpropiolate]
Assay: log2 ratio of iodoacetamide-alkyne labeling of the cysteine site, DMSO over compound (competition); higher = stronger covalent engagement of the cysteine by the compound, active = 1 or more
Conditions: 500 µM; treatment time 1 h; system: HEK293T cell lysate
Summary of the method: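 After 1 h at ambient temperature with vehicle or electrophile (500 µM), HEK293T lysate (2 mg/mL) was labelled for 1 h with iodoacetamide alkyne and clicked to sCIP-TMT reagents. Pooled samples were trypsin-digested overnight at 37 °C, streptavidin-enriched, acid-eluted and analysed by Orbitrap Eclipse LC-MS/MS with FAIMS, then quantified in FragPipe over three replicates with duplicate channels. A cysteine's log2 competition ratio is its mean control-channel over mean compound-channel reporter intensity. Cysteines quantified in only one replicate were not included.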

Chains of the proteins cited; added tags and fusions are not shown. Lines headed by an entry give the natural chain unless they say otherwise; changes in a name come on top.
UniProt Q7Z7L1: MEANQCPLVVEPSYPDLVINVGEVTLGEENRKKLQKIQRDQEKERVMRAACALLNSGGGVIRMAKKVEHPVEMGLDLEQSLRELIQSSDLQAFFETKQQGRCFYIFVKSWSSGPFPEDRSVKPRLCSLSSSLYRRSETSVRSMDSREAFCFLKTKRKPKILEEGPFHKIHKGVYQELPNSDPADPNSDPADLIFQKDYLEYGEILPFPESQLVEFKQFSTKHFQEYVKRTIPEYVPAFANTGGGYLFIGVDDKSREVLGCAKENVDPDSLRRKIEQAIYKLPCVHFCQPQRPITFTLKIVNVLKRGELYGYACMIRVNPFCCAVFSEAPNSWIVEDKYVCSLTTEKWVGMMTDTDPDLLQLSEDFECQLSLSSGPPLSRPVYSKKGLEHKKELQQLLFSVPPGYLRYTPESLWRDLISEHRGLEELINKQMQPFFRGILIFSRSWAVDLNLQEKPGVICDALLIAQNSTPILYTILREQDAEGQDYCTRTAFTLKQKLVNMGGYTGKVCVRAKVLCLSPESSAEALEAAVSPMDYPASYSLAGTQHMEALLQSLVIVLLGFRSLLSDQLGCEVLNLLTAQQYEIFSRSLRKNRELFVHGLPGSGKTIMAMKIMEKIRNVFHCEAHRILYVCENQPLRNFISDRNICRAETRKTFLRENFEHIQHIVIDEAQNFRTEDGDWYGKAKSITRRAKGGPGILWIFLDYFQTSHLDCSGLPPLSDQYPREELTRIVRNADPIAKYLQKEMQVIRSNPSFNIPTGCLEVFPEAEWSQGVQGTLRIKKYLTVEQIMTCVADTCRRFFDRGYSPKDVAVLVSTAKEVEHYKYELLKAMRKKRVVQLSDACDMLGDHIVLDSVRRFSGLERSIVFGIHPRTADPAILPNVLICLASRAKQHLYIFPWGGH
UniProt Q8IZ69: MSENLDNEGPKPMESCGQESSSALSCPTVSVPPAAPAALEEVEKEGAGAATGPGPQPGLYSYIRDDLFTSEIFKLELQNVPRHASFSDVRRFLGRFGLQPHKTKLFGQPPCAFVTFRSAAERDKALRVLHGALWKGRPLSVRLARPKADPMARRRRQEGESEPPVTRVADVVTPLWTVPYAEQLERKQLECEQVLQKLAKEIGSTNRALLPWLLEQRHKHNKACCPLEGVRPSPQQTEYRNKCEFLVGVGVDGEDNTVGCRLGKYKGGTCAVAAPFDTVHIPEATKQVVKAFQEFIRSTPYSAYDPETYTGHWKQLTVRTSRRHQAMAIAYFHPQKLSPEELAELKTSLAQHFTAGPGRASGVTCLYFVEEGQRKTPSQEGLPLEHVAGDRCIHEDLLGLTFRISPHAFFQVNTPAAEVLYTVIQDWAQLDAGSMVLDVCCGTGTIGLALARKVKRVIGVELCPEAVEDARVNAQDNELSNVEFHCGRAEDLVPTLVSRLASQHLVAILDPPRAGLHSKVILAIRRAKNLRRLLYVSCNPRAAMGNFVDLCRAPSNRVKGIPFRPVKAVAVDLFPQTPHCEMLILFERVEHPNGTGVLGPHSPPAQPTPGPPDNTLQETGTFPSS
UniProt Q8IY37: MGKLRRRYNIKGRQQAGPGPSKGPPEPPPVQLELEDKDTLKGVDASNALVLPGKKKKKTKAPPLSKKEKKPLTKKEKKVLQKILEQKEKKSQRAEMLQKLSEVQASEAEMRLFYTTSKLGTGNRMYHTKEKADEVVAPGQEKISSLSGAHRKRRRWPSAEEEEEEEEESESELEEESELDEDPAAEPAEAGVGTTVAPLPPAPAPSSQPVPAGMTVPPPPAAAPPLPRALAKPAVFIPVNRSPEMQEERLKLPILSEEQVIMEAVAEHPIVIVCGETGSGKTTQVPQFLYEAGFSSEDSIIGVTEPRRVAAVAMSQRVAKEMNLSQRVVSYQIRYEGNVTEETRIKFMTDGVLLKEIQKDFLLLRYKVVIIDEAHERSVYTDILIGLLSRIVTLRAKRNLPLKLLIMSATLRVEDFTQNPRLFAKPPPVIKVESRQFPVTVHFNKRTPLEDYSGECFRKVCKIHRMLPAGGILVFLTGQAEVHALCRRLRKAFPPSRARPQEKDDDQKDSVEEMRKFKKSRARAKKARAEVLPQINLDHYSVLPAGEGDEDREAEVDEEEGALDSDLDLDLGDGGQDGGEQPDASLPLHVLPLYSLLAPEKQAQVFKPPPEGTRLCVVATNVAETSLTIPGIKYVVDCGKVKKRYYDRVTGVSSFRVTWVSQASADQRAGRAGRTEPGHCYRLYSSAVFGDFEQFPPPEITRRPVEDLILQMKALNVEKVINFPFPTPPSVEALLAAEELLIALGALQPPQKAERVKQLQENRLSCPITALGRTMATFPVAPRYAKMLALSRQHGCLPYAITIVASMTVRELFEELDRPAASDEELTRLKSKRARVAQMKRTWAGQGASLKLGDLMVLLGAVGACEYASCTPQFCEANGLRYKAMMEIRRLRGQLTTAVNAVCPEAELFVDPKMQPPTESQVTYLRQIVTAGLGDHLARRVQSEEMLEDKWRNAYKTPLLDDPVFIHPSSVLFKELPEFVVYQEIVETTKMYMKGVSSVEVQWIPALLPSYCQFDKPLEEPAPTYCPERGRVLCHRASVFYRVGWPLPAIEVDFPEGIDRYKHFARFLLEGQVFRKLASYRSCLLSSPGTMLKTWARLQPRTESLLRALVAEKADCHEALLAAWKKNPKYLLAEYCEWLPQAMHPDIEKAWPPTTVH
UniProt Q8IVT5: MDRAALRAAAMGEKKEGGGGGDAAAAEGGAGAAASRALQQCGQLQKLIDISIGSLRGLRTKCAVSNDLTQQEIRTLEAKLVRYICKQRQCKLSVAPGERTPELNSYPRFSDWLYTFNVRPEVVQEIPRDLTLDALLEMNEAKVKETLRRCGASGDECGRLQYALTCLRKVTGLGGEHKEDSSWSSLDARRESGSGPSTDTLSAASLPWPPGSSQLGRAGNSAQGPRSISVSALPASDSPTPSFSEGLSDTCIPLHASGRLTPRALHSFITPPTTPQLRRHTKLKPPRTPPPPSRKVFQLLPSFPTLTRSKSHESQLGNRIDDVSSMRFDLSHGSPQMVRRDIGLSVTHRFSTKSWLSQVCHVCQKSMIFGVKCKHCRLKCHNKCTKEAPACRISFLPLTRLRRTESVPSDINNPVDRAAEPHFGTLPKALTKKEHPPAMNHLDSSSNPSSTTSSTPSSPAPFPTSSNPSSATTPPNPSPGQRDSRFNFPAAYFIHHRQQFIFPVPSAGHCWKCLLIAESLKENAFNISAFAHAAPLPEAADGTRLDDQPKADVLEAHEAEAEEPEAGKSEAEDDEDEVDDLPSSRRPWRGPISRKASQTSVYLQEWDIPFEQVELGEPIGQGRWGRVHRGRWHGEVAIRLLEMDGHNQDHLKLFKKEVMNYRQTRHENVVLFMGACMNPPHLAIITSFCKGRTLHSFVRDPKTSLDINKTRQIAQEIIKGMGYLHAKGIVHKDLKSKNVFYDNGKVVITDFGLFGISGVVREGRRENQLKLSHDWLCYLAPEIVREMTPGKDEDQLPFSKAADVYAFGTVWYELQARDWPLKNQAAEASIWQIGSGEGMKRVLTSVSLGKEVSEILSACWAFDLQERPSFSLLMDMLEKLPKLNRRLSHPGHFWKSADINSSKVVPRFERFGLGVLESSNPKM
UniProt Q8IYS2: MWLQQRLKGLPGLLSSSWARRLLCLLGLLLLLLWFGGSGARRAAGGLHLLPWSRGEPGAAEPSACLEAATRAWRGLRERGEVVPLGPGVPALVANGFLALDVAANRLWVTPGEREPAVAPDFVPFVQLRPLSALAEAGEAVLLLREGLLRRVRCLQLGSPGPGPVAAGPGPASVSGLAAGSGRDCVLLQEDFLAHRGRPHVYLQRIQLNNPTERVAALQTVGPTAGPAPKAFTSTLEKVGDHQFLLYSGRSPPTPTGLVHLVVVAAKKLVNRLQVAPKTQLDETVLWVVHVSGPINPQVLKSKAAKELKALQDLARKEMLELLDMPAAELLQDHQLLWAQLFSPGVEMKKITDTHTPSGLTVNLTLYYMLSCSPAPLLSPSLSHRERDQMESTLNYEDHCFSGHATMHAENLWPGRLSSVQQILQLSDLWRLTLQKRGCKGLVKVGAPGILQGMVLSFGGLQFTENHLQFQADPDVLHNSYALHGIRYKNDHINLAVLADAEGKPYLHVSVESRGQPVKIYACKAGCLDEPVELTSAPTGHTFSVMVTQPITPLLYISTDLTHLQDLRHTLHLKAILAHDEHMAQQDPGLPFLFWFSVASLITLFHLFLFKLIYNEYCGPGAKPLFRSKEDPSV
UniProt Q8IX01: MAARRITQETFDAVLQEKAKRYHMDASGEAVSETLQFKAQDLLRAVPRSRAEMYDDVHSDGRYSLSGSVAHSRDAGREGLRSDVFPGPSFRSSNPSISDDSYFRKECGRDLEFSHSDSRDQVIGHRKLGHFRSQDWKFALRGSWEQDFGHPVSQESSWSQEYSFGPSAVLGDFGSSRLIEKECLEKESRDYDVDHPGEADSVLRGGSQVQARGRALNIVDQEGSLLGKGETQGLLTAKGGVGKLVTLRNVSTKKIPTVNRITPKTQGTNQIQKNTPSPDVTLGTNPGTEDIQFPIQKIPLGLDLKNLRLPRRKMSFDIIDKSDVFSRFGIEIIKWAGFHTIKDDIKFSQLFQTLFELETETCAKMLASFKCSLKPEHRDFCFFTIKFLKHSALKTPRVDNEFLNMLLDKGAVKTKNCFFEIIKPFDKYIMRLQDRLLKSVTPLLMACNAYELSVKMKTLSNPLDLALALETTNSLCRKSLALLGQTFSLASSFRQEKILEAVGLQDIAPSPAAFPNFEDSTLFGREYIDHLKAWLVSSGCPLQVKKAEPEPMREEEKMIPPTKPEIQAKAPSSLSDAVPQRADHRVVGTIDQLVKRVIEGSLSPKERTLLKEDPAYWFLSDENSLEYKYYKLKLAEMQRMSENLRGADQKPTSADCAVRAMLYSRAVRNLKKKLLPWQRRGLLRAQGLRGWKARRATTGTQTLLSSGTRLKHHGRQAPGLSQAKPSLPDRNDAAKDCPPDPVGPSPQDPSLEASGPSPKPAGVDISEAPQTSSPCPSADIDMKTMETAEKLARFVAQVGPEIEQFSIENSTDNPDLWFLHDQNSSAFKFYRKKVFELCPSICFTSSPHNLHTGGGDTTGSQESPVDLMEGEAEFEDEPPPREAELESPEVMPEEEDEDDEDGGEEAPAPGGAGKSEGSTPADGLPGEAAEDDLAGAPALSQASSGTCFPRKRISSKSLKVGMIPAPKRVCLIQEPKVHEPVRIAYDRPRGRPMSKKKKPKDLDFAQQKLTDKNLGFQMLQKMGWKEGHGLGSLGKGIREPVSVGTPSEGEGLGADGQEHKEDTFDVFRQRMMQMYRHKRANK
UniProt Q86VP6: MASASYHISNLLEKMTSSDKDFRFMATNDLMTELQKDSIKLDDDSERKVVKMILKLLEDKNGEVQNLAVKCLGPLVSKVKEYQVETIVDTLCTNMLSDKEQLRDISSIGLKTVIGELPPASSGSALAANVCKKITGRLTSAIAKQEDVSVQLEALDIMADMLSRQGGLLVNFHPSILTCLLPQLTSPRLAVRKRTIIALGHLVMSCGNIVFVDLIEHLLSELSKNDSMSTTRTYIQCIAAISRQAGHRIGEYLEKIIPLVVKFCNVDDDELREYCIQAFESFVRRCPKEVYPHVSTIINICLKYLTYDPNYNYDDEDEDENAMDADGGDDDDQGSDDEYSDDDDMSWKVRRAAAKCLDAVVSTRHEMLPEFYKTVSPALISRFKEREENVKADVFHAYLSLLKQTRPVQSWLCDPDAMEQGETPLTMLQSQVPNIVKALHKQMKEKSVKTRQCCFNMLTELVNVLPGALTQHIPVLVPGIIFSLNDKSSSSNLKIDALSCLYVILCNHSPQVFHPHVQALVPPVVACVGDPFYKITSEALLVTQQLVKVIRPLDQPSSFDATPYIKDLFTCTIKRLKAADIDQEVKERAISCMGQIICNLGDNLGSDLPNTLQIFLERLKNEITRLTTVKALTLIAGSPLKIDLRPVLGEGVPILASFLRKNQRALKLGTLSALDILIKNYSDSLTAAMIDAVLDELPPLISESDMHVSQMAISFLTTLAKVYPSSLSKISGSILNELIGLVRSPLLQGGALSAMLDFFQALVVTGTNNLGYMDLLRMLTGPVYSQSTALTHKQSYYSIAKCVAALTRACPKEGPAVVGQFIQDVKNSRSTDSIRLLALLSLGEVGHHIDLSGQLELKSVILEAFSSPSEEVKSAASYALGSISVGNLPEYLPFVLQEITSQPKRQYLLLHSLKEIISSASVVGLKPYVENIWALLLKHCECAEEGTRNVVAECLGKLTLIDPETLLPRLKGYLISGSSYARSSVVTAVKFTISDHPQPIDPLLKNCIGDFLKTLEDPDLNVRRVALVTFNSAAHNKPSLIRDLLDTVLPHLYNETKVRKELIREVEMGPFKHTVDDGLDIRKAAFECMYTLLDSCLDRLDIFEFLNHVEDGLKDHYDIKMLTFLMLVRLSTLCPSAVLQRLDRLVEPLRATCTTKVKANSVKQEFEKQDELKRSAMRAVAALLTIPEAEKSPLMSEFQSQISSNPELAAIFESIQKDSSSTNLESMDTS

Target	log2 ratio of iodoacetamide-alkyne labeling
MAP7D3 C505 (UniProt Q8IWC1)	inactive: 0.196
ZC3HC1 C500 (UniProt Q86WB0)	inactive: 0.388
ATG9A C764 (UniProt Q7Z3C6)	inactive: 0.796
MAEA C61 (UniProt Q7L5Y9)	inactive: 0.354
ZC3HAV1 C150 (UniProt Q7Z2W4)	inactive: 0.156
UniProt Q8IYB1_C16	inactive: 0.36
UniProt Q7Z4V5_C631	inactive: 0.0968
MED13L C1204 (UniProt Q71F56)	inactive: 0.301
SLFN11 C842 (UniProt Q7Z7L1)	inactive: 0.737
TRMT2A C111 (UniProt Q8IZ69)	inactive: 0.0928
APTX C161 (UniProt Q7Z2E3)	inactive: 0.422
USP48 C54 (UniProt Q86UV5)	inactive: 0.174
DHX37 C766 (UniProt Q8IY37)	inactive: 0.652
KSR1 C777 (UniProt Q8IVT5)	inactive: 0.336
UniProt Q7RTV0_C40	inactive: 0.0358
UBR1 C1603 (UniProt Q8IWV7)	inactive: 0.433
SUPT6H C527 (UniProt Q7KZ85)	inactive: 0.307
KIAA2013 C185 (UniProt Q8IYS2)	inactive: 0.14
ANKLE2 C844 (UniProt Q86XL3)	inactive: 0.0364

Target	log2 ratio of iodoacetamide-alkyne labeling
USP48 C986 (UniProt Q86UV5)	inactive: 0.0665
UniProt Q8IX01_C656	active: 2.27
UniProt Q8IX01_C947	inactive: 0.442
DHX37 C1083 (UniProt Q8IY37)	inactive: 0.258
UniProt Q86Y56_C173	inactive: 0.779
PXK C570 (UniProt Q7Z7A4)	inactive: 0.571
TRMT2A C392 (UniProt Q8IZ69)	inactive: 0.517
CAND1 C571 (UniProt Q86VP6)	inactive: 0.108
CKAP2L C124 (UniProt Q8IYA6)	inactive: 0.747
UniProt Q7Z7A3_C287	inactive: -0.267
RBBP6 C27 (UniProt Q7Z6E9)	inactive: 0.0842
DIS3L2 C312 (UniProt Q8IYB7)	inactive: 0.226
GATAD2A C417 (UniProt Q86YP4)	inactive: 0.297
MEPCE C54 (UniProt Q7L2J0)	inactive: 0.279
GATAD2A C420 (UniProt Q86YP4)	inactive: 0.297
TRMT2A C191 (UniProt Q8IZ69)	inactive: 0.327
CAND1 C356 (UniProt Q86VP6)	inactive: 0.216
PHC2 C740 (UniProt Q8IXK0)	inactive: 0.351

An excerpt of these results, with bars between the fields:
Target | log2 ratio of iodoacetamide-alkyne labeling
DHX37 C766 (UniProt Q8IY37) | inactive: 0.652
KSR1 C777 (UniProt Q8IVT5) | inactive: 0.336
UniProt Q7RTV0_C40 | inactive: 0.0358
UBR1 C1603 (UniProt Q8IWV7) | inactive: 0.433
SUPT6H C527 (UniProt Q7KZ85) | inactive: 0.307
KIAA2013 C185 (UniProt Q8IYS2) | inactive: 0.14
ANKLE2 C844 (UniProt Q86XL3) | inactive: 0.0364
